Reference: US7432264B2, “Antimicrobial biaryl compounds” (Isis Pharmaceuticals, Inc., priority 2000, dated 2008)
For some assays here: At least one read-out could not be matched to a standard name with certainty. Some of these results come from one statement about several compounds together.

Columns and labels:
[1] = tested on: E. coli ATCC 25922; assay: Minimum inhibitory concentration (MIC), E. coli; assay type: cell-based, Escherichia coli; details: at 100:M
Procedure: (§1) Bacterial Strains. The Streptococcus pyogenes strains, Klebsiella pneumoniae, Escherichia coli, Staphylococcus aureus, Enterococcus faecalis used in the antibacterial activity studies ATCC 14289, 49399, 13883, 25922, 13709, 29212, respectively, are obtained from the American Type Culture Collection, Rockville, Md. The strain E. coli imp— is a mutant strain of wild type E. coli with increased outer membrane permeability and was grown in LB broth at 37 °C. S. pyogenes strain is grown in Todd-Hewitt broth. S. aureus is grown in trypticase soy broth, E. faecalis in Todd-Hewitt broth, wild type E. coli and K. pneumoniae, in nutrient broth.
Determination of Minimum Inhibitory Concentrations (MICs). The assays were carried out in […] volume in duplicate in 96-well clear flat-bottom plates. The bacterial suspension from an overnight culture growth in appropriate medium was added to a solution of test compound in 4% DMSO in water. Final bacterial inoculum was approximately 10^5-10^6 CFU/well. The percent growth of the bacteria in test wells relative to that observed for a well containing no compound was determined by measuring absorbance at 595 nm (A595) after 24 h. […] Both ampicillin and tetracycline is used as antibiotic-positive controls in each screening assay for S. pyogenes, E. coli imp-, E. coli, S. aureus, E. faecalis, K pneumoniae and P. vulgaris. […]

[2] = tested on: S. aureus ATCC 13709; assay: Minimum inhibitory concentration (MIC), S. aureus; assay type: cell-based, Staphylococcus aureus; details: for MIC activity in initial/primary antibacterial screens, S. aureus: at 100:M
Procedure: as §1
Determination of Minimum Inhibitory Concentrations (MICs). The assays were carried out in […] volume in duplicate in 96-well clear flat-bottom plates. The bacterial suspension from an overnight culture growth in appropriate medium was added to a solution of test compound in 4% DMSO in water. Final bacterial inoculum was approximately 10^5-10^6 CFU/well. The percent growth of the bacteria in test wells relative to that observed for a well containing no compound was determined by measuring absorbance at 595 nm (A595) after 24 h. […] Both ampicillin and tetracycline is used as antibiotic-positive controls in each screening assay for S. pyogenes, E. coli imp-, E. coli, S. aureus, E. faecalis, K pneumoniae and P. vulgaris. Ciprofloxacin is used as an antibiotic positive control in each screening assay for P. aeruginosa.

Compound	MIC activity in initial/primary antibacterial screens, E. coli [1]	MIC activity in initial/primary antibacterial screens, S. aureus [2]	MIC (S. aureus) [2] [µM]
CN(C)CCCOc1ccc(C(NC(=O)c2ccc(-c3cccc(NC(=O)c4ccc5[nH]c(=O)c(=O)[nH]c5c4)c3)o2)C(N)=O)cc1 (centres unmarked) [Compound 21]	not active	not active	–
CN(C)CCCOc1ccc(C(NC(=O)c2ccc3[nH]c(=O)c(=O)[nH]c3c2)C(=O)N2CCNCC2)cc1 (centres unmarked) [Compound 22]	not active	not active	–
CN(C)CCCOc1ccc(C(NC(=O)c2ccc(-c3cccc(NC(=O)c4ccc(-c5ccccc5)cc4)c3)o2)C(=O)N2CCNCC2)cc1 (centres unmarked) [Compound 34]	–	–	3000 to 6000
